PubChem BioAssay AID504744, Drosophila RNAi Screening Center, 2011

Aim: 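Identify dsRNAs that increase or decrease phospho-dAkt after insulin treatment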 (primary screen)
System: Drosophila Kc167 cells
Knock-down reagent: long dsRNA against Drosophila genes, 250 ng dsRNA per well of a 384-well plate
Timing: 3 days of knock-down, then overnight serum-free starvation before stimulation
Conditions: bovine insulin at 387 nM for 10 minutes after 12 h without serum
Read-out: 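In-cell antibody fluorescence for phospho-dAkt in each well over DNA-dye signal, with log2 residuals expressed as z-scores adjusted for cell count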
Call rule: 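Hit in the insulin screen when the two-replicate mean z-score is more extreme than plus or minus 2.5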
In all, the deposit lists about 23,000 reagents; this is a random part of those with a known target gene and a result. Of all reagents, 98 (0.43%) are marked active. 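Only hit calls are given; the phospho-dAkt signals, z-scores and hit direction were not deposited.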 A plus sign joins genes that one reagent is predicted to hit. No sequences are given here.

no.	gene knocked down	PubChem SID	outcome
1	CG32982	SID104180851	inactive
2	CG32982	SID104182469	inactive
3	CG32982	SID104183060	inactive
4	CG32982	SID104183061	inactive
5	CG32982	SID104201536	inactive
6	CG31115	SID104193484	inactive
7	E(spl)m6-BFM (Enhancer of split m6, Bearded family member)	SID104196785	inactive
8	CG11828	SID104194186	inactive
9	CG11828	SID104202003	inactive
10	CG12419 (retired record)	SID104194305	inactive
11	mRpS18C (mitochondrial ribosomal protein S18C)	SID104196330	inactive
12	mRpS9 (mitochondrial ribosomal protein S9)	SID104192437	inactive
13	mRpS9 (mitochondrial ribosomal protein S9)	SID104195248	inactive
14	CG6414	SID104198193	inactive
15	sut1 (sugar transporter 1)	SID104187492	inactive
16	aln (allnighter)	SID104188032	inactive
17	Sting	SID104186407	inactive
18	CG33269	SID104190377	inactive
19	CG7264	SID104190585	inactive
20	Gr22d (retired record)	SID104201343	inactive
21	mthl15 (methuselah-like 15)	SID104180912	inactive
22	Nrg (Neuroglian)	SID104197365	inactive
23	Nrg (Neuroglian)	SID104198480	inactive
24	Dolk (Dolichol kinase)	SID104186935	inactive
25	Appl (beta amyloid protein precursor-like)	SID104197520	inactive

Copied from the entries so far, 5 entries:
no.	gene knocked down	PubChem SID	outcome
4	CG32982	SID104183061	inactive
5	CG32982	SID104201536	inactive
6	CG31115	SID104193484	inactive
7	E(spl)m6-BFM (Enhancer of split m6, Bearded family member)	SID104196785	inactive
8	CG11828	SID104194186	inactive

Next entries follow:
no.	gene knocked down	PubChem SID	outcome
26	Or65c (Odorant receptor 65c)	SID104201100	inactive
27	CG42354 + CG42353	SID104199964	inactive
28	CG6567	SID104195858	inactive
29	CG33096	SID104194232	inactive
30	CG14298	SID104194569	inactive
31	CG8197	SID104186897	inactive
32	capu (cappuccino)	SID104180000	inactive
33	capu (cappuccino)	SID104180001	inactive
34	capu (cappuccino)	SID104180226	inactive
35	capu (cappuccino)	SID104180599	inactive
36	CG3397	SID104195279	inactive
37	Mettl14 (Methyltransferase like 14)	SID104182865	inactive
38	RpL34b (Ribosomal protein L34b)	SID104196267	inactive
39	CG18870	SID104184105	inactive
40	CG8369	SID104196205	inactive
41	CG42597	SID104183473	inactive
42	sicily (severe impairment of CI with lengthened youth)	SID104199496	inactive
43	CG42788	SID104195122	inactive
44	CG42788	SID104195931	inactive
45	CG42788	SID104195944	inactive
46	CG5435	SID104182652	inactive
47	CG7168	SID104196000	inactive
48	JMJD4 (Jumonji domain containing 4)	SID104182817	inactive
49	slp2 (sloppy paired 2)	SID104180628	inactive
50	CG11403	SID104198324	inactive
51	CG13428	SID104186182	inactive
52	CG5388	SID104195581	inactive
53	Obp19d (Odorant-binding protein 19d)	SID104200361	inactive
54	SRPK (SR Protein Kinase)	SID104186882	inactive
55	CG17684	SID104187516	inactive
56	CG17684	SID104200958	inactive
57	Gr10a (Gustatory receptor 10a)	SID104198689	inactive
58	Gr10a (Gustatory receptor 10a)	SID104202151	inactive
59	NC2beta (Negative Cofactor 2beta)	SID104181687	inactive
60	Mbs (Myosin binding subunit)	SID104189206	inactive
61	Mbs (Myosin binding subunit)	SID104190317	inactive
62	Mbs (Myosin binding subunit)	SID104190345	inactive
63	Spn100A (Serpin 100A)	SID104194388	inactive
64	Cdk1 (Cyclin-dependent kinase 1)	SID104183296	inactive
